Consider four molecules from patent US7560259B2, “Glutathione S-transferase sequence variants” (Mayo Foundation for Medical Education and Research, priority 2005, dated 2009).

The chains are these.
B1: Cys130Tyr: GSTO2 allozyme having a tyrosine at amino acid residue 130 in place of a cysteine residue (protein)
chain: MSGDATRTLGKGSQPPGPVPEGLIRIYSMRFCPYSHRTRLVLKAKDIRHEVVNINLRNKPEWYYTKHPFGHIPVLETSQCQLIYESVIACEYLDDAYPGRKLFPYDPYERARQKMLLELFCKVPHLTKEYLVALRCGRECTNLKAALRQEFSNLEEILEYQNTTFFGGTCISMIDYLLWPWFERLDVYGILDCVSHTPALRLWISAMKWDPTVCALLMDKSIFQGFLNLYFQNNPNAFDFGLC
B2: Asn142Asp/Leu158Ile: double variant GSTO2 allozyme, Asn142Asp and Leu158Ile (protein)
chain: B1 chain with Y130C, N142D, L158I
B3: WT: reference (wild type) human GSTO2 polypeptide, SEQ ID NO:9 (protein)
chain: B1 chain with Y130C
modifications: Homo sapien
B4: Leu158Ile: GSTO2 allozyme having an isoleucine at amino acid 158 in place of a leucine residue (protein)
chain: B1 chain with Y130C, L158I

Positions count from the first letter of the chain named.

The subject of the series is rabbit reticulocyte lysate (RRL). Kind of series: In vitro translation and protein degradation of 35S-labeled GSTO2 allozymes in rabbit reticulocyte lysate. The following applies: after 24 hours, untreated RRL with ATP generating system, 37° C. The method, then: In vitro Translation and Degradation: Selected GSTO2 expression constructs were transcribed and translated in vitro in the presence of ^35S-methionine (1000 Ci/mmol, 2.5 mCi total activity) (Amersham Pharmacia Biotech) using the TNT coupled rabbit reticulocyte lysate (RRL) system (Promega, Madison, Wis.). Reaction mixtures used to generate radioactively labeled protein were incubated at 30° C. for 90 minutes, and 5 μl aliquots were used to perform SDS-PAGE with 10% gels. Protein degradation studies were performed as described (Wang et al. (2003) Pharmacogenet. 13:555-564). Briefly, 50 μl of an adenosine 5′-triphosphate (ATP) generating system, 50 μl of “untreated” RRL, and 10 μl of ^35S-methionine radioactively labeled GSTO2 allozyme were mixed. This mixture was incubated at 37° C., and 10 μl aliquots were removed at various time intervals, followed by SDS-PAGE. After electrophoresis, the gels were dried, exposed to X-ray film and the bands of radioactively labeled protein were quantified.
To investigate the mechanisms responsible for the striking decrease in expression of the GSTO2 Cys130Tyr and Leu158Ile allozymes, protein degradation studies were performed using RRL. Radioactive WT and variant GSTO2 allozymes were synthesized using “treated” RRL, and the recombinant proteins were incubated for various periods of time with “untreated” RRL and an ATP generating system to follow the time course of protein degradation. […] After 24 hours, 26% of Cys130Tyr, 6.6% of Leu158Ile, 5.6% of Asn142Asp/Leu158Ile, and 73% of the WT protein remained. Therefore, accelerated degradation appeared to be responsible, at least in part, for differences in levels of the GSTO2 variant allozymes after expression in COS-1 cells.
In turn, B1 showed a protein remaining of 26%.
In the case of B2 it was 5.6%; in that of B3, 73%.
In the case of B4 it was 6.6%.
